Test results as given in publication PMC11703099.
No constants are given. Whether binding was seen depends on the method and setting. In cells and extracts the contact can be indirect. These calls come from enrichment with a bait or labelling near it, and not all partners need be listed.

Chains of the proteins cited; added tags and fusions are not shown. Lines headed by an entry give the natural chain unless they say otherwise; changes in a name come on top.
UniProt Q9U263: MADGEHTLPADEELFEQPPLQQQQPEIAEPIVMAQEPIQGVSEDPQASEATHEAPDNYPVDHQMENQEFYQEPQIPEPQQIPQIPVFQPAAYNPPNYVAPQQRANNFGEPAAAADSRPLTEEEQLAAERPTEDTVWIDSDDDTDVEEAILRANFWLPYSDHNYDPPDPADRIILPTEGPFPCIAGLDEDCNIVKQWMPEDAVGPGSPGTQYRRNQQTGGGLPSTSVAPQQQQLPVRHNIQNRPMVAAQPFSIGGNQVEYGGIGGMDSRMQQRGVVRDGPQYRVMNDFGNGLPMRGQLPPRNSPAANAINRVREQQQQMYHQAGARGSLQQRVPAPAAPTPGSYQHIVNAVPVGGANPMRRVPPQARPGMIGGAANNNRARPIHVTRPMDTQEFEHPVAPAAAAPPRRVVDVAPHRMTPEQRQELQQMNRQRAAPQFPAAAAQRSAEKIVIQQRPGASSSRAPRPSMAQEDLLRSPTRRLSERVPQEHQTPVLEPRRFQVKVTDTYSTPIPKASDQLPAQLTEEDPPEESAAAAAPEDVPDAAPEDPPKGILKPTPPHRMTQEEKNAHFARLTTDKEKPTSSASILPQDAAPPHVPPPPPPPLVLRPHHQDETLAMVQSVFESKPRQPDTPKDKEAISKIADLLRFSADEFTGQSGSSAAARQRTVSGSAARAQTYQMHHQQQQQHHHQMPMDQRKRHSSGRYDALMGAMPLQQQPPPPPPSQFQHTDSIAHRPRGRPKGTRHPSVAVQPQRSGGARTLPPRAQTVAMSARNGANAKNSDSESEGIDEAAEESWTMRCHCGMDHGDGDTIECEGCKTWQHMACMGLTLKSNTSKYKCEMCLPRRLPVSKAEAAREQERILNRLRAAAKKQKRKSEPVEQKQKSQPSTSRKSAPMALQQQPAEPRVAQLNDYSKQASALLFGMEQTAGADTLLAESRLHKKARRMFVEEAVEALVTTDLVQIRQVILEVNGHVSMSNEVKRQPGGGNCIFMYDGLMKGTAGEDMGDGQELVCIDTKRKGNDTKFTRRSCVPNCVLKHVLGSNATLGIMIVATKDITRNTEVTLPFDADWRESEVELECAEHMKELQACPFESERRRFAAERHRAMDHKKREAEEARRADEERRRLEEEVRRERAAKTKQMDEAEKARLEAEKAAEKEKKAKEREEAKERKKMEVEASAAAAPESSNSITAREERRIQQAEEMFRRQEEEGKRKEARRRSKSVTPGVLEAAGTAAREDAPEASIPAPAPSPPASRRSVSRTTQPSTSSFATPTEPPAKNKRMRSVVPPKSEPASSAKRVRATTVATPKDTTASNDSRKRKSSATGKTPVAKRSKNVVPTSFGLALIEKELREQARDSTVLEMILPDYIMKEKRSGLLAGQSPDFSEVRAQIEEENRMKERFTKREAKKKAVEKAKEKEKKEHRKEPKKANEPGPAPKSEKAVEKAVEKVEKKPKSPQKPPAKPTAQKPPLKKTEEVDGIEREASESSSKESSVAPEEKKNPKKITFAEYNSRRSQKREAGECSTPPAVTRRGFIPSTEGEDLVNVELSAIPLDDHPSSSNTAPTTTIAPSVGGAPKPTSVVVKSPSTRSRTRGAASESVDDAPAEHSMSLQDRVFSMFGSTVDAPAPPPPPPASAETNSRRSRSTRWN
UniProt Q9BL48: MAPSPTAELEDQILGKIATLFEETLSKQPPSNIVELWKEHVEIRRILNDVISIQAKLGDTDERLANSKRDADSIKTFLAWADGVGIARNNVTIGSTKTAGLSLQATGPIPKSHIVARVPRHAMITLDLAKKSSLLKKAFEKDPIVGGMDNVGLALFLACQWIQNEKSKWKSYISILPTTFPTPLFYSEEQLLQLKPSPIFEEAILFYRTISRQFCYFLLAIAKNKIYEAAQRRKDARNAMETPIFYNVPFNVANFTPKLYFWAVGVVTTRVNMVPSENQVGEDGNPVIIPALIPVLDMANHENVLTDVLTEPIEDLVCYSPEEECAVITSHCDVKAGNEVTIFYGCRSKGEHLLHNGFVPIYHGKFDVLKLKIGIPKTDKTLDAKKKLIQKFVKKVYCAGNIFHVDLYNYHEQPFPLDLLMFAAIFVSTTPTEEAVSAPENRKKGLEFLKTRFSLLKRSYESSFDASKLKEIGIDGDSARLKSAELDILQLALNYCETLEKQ

Molecular target: SET-26::GFP (WT background) (C. elegans) (UniProt Q9U263)
Assay: affinity purification with mass spectrometry; anti-GFP immunoprecipitation of SET-26::GFP from adult worms fed L4440 control or ulp-2(RNAi), label-free LC-MS/MS; N2 as control; 3 biological replicates

Q: “SET-27 (endogenous) (from UniProt Q9BL48)” was tested. Which binding did it give?
A: binds
